US11896600B2, “Composition and method of using eicosanoyl-5-hydroxytryptamide for treating neurodegenerative disorders” (Vidya Herbs, Inc., priority 2019, dated 2024)
Where a name gives a salt, the structure may show the parent alone.

Test system: brain tissue of scopolamine-induced mice
Test: Histopathological examination of brain (H&E), healthy neurons in hippocampus
Format: in vivo, Swiss albino mice
Conditions: donepezil 3 mg/kg p.o.; vs untreated amnesia mice, p<0.001

COc1cc2c(cc1OC)C(=O)C(CC1CCN(Cc3ccccc3)CC1)C2 (stereo not shown) [donepezil, donepezil hydrochloride]
number of healthy neurons in brain hippocampus region: significantly improved the healthy neurons
